Consider 19 molecules from PubChem BioAssay AID248 (DTP/NCI, 2004).

The experiment deals with L1210 leukemia ip in BDF1 mice, survival T/C. Briefly: NCI In Vivo Anticancer Drug Screen. Data for tumor model L1210 Leukemia (intraperitoneal) in B6D2F1 (BDF1) mice. The settings on record: T/C endpoint: mean survival time, higher T/C = longer survival.
Setting [1] is: dose: 400.0 mg/kg/injection, schedule: Q04DX003 (ip), vehicle: Klucel (hydroxypropylcellulose) (HPC).
Setting [2] is: dose: 400.0 mg/kg/injection, schedule: Q04DX002 (ip), vehicle: saline with Tween-80.
[3] abbreviates: dose: 50.0 mg/kg/injection, schedule: Q04DX003 (ip), vehicle: saline.
The mark [4] stands for this setting: dose: 200.0 mg/kg/injection, schedule: Q04DX003 (ip), vehicle: saline.
Setting [5] is: dose: 400.0 mg/kg/injection, schedule: Q04DX003 (ip), vehicle: saline.
Setting [6] is: dose: 400.0 mg/kg/injection, schedule: Q04DX003 (ip), vehicle: saline with Tween-80.
[7] abbreviates: dose: 200.0 mg/kg/injection, schedule: Q01DX009 (ip), vehicle: Klucel (hydroxypropylcellulose) (HPC).
Setting [8] is: dose: 200.0 mg/kg/injection, schedule: Q04DX003 (ip), vehicle: Klucel (hydroxypropylcellulose) (HPC).
Where [9] appears, read: dose: 100.0 mg/kg/injection, schedule: Q01DX001 (ip), vehicle: saline.

The list does not hold the whole screen: it gathers tests that were run many times, whatever their T/C, doses with no T/C, and many T/C values between a quarter and a half above the control. Other doses and runs of a compound stand elsewhere. T/C: endpoint of the treated group in % of that of the vehicle group. Some entries give survivors of the animals treated and no T/C: the source files T/C as zero there, which appears to mark a toxic dose or a test without result, not a measured value. Some survivor counts are full or nearly so, which does not show that the dose was tolerated: the source hardly ever lists a survival T/C far under the control, and the zero likely stands for such cases as well. Counts of survivors are from the toxicity check (mostly the fifth day) where no day follows; animals may have died later. Schedule codes are those of the source, read here as Q, the interval in days (D) or hours (H), X, the number of doses. Some doses were run more than once; the results are listed from low to high. For survival time, the PubChem record calls one and a half times the control and up active, and a quarter to a half above the control has no call in these data; cut-offs in other NCI protocols can differ. Some T/C values carry the count of animals alive at the toxicity check (mostly the fifth day); without a count, all were alive then.

Consider `CC(=O)Nc1c([N+](=O)[O-])ccc(Cl)c1Cl`, for which the survivor count under setting [1] is 0 of 6.

In the case of `Cl/C(=C/C=C(c1ccccc1)c1ccccc1)c1ccccc1`, the survivor count under setting [2] is given as 3 of 3.

As to `O=c1c(Cl)c(C(Cl)(Cl)Cl)[nH]c2c(Cl)cc(Cl)cc12`, the survivor count (dose: 25.0 mg/kg/injection, schedule: Q01DX009 (ip), vehicle: other) is on record as 0 of 3; the survivor count (dose: 50.0 mg/kg/injection, schedule: Q01DX009 (ip), vehicle: other) is recorded as 0 of 3; the survivor count (dose: 100.0 mg/kg/injection, schedule: Q01DX009 (ip), vehicle: other) is given as 0 of 3; the survivor count (dose: 200.0 mg/kg/injection, schedule: Q01DX009 (ip), vehicle: other) is 0 of 3.

Turning to `CC(=O)[O][Hg][c]1c(N)c(C)cc(C)c1F`, the survivor count reads like this: (dose: 20.0 mg/kg/injection, schedule: Q01DX009 (ip), vehicle: saline) 1 of 6; under setting [3], 3 of 6; (dose: 100.0 mg/kg/injection, schedule: Q04DX003 (ip), vehicle: saline) 0 of 6; under setting [4], 3 of 6; under setting [5], 0 of 6.

Turning to `CCOC(=O)C1(C(C)C)OC2(O)C3CCCN3CC(C(C)C)N2C1=O` (stereo not given), the survivor count runs as follows: (dose: 200.0 mg/kg/injection, schedule: Q04DX003 (ip), vehicle: saline with Tween-80) 5 of 6; under setting [6], 0 of 6.

Consider `[Cl][Co][Cl].[NH-]CCN1CC1`, for which the survivor count by setting is: under setting [4], 0 of 6; under setting [5], 0 of 6.

Regarding `CC(N)CCC(C)(C)O` (stereo not given), the survivor count (dose: 200.0 mg/kg/injection, schedule: Q01DX009 (ip), vehicle: saline) is listed as 1 of 6.

Consider `CCCCCCCCCCCC(=O)Nc1ccc(S(=O)(=O)NNc2ccccc2)cc1[N+](=O)[O-]`, for which the survivor count under setting [7] is recorded as 5 of 6 and the survivor count (dose: 400.0 mg/kg/injection, schedule: Q01DX009 (ip), vehicle: Klucel (hydroxypropylcellulose) (HPC)) was 0 of 6.

For the molecule `COc1ccc(C(=O)N(N)C2CCCCC2)cc1`, the survivor count under setting [6] was 3 of 6.

Turning to `Oc1cc(Br)c(O)c(Br)c1`, where the note is “dose: 200.0 mg/kg/injection, schedule: Q04DX002 (ip), vehicle: Klucel (hydroxypropylcellulose) (HPC)”, the survivor count is given as 0 of 3.

In the case of `CCCCCCCCCCCC(=O)NC(=S)Nc1ccccc1Cl`, the survivor count reads like this: (dose: 100.0 mg/kg/injection, schedule: Q04DX003 (ip), vehicle: Klucel (hydroxypropylcellulose) (HPC)) 6 of 6; under setting [8], 4 of 6; under setting [1], 3 of 6.

Regarding `CC1CN1CCCNC(=O)C(=O)NCCCN1CC1C` (stereo not given), the T/C runs as follows: (dose: 25.0 mg/kg/injection, schedule: Q01DX001 (ip), vehicle: saline) 127 % of control; (dose: 25.0 mg/kg/injection, schedule: Q04DX003 (ip), vehicle: saline) 139 % of control; (dose: 50.0 mg/kg/injection, schedule: Q01DX001 (ip), vehicle: saline) 134 % of control; under setting [9], 132 % of control [5 of 6 alive].

On to `O=C(O)c1ccnc(-c2ccc(Cl)cc2)c1`, for which the survivor count under setting [5] was 2 of 6.

Consider `CC#CC#C/C=C1/C=CC(=O)O1`, for which the survivor count reads like this: (dose: 35.0 mg/kg/injection, schedule: Q01DX009 (ip), vehicle: saline) 1 of 6; (dose: 50.0 mg/kg/injection, schedule: Q04DX003 (ip), vehicle: alcohol) 6 of 6; (dose: 55.0 mg/kg/injection, schedule: Q01DX009 (ip), vehicle: saline) 0 of 6; (dose: 100.0 mg/kg/injection, schedule: Q04DX003 (ip), vehicle: alcohol) 1 of 6; (dose: 200.0 mg/kg/injection, schedule: Q04DX003 (ip), vehicle: alcohol) 0 of 6.

On to `CCCCCCCC(=O)N(CC(C)C)CC(C)C`, for which the survivor count (dose: 100.0 mg/kg/injection, schedule: Q01DX009 (ip), vehicle: carboxymethylcellulose (CMC)) is 3 of 3; the survivor count (dose: 400.0 mg/kg/injection, schedule: Q01DX009 (ip), vehicle: carboxymethylcellulose (CMC)) is 3 of 3 and 6 of 6.

`S=c1nc[nH]c2c1[nH]c(=S)n2CCc1cnc[nH]1`: the survivor count (dose: 800.0 mg/kg/injection, schedule: Q01DX001 (ip), vehicle: steroid suspending solution) was 0 of 6.

As for `CCCN(CCC)C(=S)CC`, the survivor count under setting [2] is 1 of 3.

Consider `C[N+](C)(C)C(=Nc1ccccc1)c1ccccc1`, for which the survivor count (dose: 100.0 mg/kg/injection, schedule: Q01DX009 (ip), vehicle: Klucel (hydroxypropylcellulose) (HPC)) is 2 of 6; the survivor count under setting [7] is reported as 0 of 6; the survivor count under setting [8] is listed as 0 of 6; the survivor count under setting [1] is 0 of 6.

Turning to `C1CCCCCC(N2CCCC2)CCCCC1`, the survivor count is on record as 6 of 6 under setting [3]; 2 of 6 under setting [9]; 0 of 6 (dose: 200.0 mg/kg/injection, schedule: Q01DX001 (ip), vehicle: saline); 0 of 6 (dose: 400.0 mg/kg/injection, schedule: Q01DX001 (ip), vehicle: saline).
